Test results from the supplement of paper PMC11732987, “Enantioselective OTUD7B fragment discovery through chemoproteomics screening and high-throughput optimisation” (Communications Chemistry, 2025).
Some of the results follow. The data scatter; read single values as rough.

Amino acid sequences for entries named in this document (tags omitted). A change or cut given only in a name is not applied to a line headed by its entry.
UniProt Q9Y4A5, whole entry, looked up: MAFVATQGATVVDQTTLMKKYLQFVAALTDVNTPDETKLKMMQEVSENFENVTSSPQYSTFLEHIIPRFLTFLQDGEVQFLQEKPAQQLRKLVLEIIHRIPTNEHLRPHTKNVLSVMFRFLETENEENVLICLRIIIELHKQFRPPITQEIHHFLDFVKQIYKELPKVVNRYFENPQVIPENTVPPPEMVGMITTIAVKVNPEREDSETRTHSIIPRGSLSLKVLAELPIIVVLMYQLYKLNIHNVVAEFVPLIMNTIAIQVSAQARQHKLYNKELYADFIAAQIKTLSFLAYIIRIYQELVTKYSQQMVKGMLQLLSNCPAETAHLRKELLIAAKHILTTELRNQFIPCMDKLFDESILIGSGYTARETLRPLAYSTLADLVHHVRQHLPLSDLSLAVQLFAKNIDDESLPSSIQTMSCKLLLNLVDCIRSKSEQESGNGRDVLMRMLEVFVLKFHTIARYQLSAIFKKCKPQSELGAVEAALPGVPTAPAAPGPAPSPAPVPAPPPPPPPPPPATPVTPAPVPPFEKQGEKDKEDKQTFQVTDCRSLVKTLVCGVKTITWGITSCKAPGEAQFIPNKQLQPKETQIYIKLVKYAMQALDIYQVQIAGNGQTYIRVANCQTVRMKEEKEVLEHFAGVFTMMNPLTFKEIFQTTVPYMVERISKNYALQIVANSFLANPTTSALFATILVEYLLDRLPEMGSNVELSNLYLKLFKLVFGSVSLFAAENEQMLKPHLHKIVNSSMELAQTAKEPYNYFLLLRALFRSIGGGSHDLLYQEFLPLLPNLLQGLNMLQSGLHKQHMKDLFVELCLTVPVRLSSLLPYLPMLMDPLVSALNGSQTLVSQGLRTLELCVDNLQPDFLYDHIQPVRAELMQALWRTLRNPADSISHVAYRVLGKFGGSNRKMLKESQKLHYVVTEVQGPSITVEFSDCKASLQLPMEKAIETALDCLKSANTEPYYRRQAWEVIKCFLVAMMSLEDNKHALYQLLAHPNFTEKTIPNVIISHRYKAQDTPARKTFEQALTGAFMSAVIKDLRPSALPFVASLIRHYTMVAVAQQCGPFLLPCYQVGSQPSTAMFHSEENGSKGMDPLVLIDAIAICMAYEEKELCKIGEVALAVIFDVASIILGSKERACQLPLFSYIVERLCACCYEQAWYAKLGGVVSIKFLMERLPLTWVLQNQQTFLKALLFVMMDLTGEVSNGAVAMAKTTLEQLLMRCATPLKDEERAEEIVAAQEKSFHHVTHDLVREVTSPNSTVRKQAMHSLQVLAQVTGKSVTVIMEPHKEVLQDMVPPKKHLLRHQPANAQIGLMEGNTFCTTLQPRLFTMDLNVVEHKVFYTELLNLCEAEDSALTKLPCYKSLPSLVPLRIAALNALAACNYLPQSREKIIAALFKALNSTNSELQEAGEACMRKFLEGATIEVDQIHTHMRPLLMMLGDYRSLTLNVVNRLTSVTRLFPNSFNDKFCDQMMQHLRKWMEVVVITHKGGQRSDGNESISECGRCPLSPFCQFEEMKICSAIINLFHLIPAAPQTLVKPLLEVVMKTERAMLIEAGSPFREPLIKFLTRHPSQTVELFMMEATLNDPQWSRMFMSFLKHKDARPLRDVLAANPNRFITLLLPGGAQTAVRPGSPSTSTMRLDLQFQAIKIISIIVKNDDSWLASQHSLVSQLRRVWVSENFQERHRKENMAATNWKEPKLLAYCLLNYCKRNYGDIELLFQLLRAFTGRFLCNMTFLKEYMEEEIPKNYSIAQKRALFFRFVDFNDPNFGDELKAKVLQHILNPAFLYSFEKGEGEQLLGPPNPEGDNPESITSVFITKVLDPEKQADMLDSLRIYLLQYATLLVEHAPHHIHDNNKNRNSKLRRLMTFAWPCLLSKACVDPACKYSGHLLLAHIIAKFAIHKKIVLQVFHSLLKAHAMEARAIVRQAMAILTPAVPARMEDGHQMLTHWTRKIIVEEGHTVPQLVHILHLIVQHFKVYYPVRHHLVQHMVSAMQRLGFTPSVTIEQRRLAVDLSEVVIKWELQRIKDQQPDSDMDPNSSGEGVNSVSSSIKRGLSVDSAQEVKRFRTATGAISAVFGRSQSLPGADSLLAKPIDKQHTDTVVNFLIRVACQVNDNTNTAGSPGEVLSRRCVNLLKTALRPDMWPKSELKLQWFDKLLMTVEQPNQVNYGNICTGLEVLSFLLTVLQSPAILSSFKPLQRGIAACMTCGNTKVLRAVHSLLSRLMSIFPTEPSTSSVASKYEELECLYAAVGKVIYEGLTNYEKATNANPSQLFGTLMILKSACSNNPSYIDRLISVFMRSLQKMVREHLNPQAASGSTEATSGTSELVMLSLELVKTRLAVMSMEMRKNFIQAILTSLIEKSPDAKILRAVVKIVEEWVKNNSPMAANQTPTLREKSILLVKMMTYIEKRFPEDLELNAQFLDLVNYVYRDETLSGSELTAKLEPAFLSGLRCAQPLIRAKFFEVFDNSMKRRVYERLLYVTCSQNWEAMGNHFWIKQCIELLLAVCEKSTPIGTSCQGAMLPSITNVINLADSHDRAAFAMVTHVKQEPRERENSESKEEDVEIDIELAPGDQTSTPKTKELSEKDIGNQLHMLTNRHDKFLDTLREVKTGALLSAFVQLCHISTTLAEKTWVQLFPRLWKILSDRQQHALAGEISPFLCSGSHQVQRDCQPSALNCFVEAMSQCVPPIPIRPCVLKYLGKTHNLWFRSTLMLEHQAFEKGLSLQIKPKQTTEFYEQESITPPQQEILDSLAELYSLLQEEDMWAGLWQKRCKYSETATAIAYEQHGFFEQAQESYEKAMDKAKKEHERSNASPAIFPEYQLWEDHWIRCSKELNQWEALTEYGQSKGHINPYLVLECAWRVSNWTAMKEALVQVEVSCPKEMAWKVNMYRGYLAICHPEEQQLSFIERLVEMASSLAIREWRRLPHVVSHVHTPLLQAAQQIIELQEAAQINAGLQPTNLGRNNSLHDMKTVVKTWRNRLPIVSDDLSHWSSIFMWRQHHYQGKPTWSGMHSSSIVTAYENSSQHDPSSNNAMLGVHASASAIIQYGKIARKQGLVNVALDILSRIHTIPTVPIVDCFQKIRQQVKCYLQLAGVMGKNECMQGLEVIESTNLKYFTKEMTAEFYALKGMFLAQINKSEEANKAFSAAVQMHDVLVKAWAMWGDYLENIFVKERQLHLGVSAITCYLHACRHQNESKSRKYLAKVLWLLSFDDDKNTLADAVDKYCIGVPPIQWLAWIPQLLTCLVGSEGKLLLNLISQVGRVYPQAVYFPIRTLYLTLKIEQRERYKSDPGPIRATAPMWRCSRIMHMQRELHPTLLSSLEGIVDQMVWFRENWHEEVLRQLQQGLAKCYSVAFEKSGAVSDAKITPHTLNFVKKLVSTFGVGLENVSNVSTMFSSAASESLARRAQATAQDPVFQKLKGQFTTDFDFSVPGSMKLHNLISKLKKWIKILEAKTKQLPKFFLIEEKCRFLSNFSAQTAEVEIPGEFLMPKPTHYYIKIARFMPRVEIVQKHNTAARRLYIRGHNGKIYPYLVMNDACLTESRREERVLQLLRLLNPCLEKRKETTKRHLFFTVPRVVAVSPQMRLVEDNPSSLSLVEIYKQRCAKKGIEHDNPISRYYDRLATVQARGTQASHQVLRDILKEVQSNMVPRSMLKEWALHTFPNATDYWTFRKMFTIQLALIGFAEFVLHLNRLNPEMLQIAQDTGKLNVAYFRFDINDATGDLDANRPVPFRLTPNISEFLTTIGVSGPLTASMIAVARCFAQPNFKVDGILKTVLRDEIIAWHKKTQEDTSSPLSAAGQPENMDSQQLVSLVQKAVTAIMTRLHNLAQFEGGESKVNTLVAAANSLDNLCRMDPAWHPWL
UniProt Q9BSJ2, whole entry, looked up: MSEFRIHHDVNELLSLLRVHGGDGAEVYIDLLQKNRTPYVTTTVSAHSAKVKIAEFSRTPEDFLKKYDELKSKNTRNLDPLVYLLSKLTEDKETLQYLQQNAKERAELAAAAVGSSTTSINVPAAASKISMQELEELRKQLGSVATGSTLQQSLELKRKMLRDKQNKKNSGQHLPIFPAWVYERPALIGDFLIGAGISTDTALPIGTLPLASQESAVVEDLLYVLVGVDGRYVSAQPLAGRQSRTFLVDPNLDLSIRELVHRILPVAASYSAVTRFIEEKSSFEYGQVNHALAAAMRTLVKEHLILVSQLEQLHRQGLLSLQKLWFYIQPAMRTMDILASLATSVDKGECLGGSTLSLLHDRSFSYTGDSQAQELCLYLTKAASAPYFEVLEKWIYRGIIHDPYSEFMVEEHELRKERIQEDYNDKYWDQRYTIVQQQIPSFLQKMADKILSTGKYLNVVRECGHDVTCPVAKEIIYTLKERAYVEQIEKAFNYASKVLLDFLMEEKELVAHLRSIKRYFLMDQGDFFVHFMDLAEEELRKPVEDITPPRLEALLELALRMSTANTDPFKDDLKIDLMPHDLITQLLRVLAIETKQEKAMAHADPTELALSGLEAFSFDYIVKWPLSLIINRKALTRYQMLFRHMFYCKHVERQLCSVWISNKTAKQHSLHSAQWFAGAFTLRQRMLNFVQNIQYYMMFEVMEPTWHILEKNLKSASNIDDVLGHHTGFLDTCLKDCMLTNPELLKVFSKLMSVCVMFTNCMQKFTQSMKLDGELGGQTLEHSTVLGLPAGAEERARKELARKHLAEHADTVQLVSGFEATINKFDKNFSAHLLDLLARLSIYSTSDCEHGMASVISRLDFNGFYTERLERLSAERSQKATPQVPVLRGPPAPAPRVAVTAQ
UniProt Q5R3I4: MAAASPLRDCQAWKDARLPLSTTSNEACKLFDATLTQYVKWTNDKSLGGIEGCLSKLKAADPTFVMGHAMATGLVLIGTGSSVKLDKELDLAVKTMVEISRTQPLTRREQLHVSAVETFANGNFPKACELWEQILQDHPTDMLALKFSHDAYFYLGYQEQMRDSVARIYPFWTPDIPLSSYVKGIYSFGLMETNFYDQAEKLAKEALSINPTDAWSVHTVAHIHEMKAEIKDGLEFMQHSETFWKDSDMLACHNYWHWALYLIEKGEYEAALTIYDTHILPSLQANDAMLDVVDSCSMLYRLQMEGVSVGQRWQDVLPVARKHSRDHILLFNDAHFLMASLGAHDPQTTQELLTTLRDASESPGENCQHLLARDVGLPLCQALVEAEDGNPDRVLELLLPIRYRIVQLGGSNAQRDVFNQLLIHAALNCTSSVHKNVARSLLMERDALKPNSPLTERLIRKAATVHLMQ
UniProt Q99598: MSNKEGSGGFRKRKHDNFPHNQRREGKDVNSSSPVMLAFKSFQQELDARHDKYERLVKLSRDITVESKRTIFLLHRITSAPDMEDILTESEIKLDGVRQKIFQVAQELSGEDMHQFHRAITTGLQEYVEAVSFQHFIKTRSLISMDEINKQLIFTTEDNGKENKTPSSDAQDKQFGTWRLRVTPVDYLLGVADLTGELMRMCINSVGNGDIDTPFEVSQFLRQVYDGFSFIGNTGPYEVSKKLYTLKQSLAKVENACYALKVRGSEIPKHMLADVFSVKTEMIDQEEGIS
UniProt P22314: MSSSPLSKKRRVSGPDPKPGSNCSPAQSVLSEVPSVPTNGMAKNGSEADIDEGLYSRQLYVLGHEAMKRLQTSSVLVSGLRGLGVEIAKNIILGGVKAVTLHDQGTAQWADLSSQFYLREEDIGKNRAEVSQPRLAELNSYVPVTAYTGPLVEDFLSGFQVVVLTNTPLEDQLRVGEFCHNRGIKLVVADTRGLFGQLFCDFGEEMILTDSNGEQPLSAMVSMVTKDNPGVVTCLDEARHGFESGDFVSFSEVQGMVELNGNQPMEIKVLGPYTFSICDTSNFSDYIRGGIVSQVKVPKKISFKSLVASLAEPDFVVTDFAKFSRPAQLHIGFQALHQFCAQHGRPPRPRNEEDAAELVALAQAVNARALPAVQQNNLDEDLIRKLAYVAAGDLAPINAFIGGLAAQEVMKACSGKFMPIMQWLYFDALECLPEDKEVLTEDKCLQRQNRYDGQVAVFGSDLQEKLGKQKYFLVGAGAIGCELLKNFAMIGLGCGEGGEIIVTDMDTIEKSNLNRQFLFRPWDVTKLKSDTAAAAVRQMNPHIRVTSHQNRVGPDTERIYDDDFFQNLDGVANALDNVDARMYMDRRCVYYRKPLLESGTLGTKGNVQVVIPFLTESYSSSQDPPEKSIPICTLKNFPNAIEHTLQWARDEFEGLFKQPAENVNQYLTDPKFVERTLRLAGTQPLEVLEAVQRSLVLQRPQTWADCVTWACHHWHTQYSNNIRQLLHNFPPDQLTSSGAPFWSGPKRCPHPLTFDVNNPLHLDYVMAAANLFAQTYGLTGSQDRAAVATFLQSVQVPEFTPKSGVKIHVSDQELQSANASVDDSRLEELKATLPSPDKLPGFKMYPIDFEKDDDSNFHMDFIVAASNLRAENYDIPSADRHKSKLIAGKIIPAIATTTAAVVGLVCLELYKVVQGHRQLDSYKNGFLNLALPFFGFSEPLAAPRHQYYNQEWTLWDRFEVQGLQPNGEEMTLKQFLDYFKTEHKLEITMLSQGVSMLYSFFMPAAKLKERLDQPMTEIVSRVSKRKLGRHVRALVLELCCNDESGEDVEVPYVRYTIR

compound: ClCC(=O)N[C@H]1CCCc2ccccc12; experiment: log2 mean competition ratio of IA-DTB cysteine labelling (DMSO/compound) (log2 ratio); higher = stronger cysteine engagement by compound; conditions: 200 µM; treatment time: 4 h; cell line lysate: HEK293T
Protocol: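 IA-DTB competitive cysteine chemoproteomics in HEK293T RIPA lysate. Lysates were treated with compound 29 or 30 at 50 or 200 µM for 4 h, then IA-DTB (500 µM, 1 h), trypsin-digested, NeutrAvidin-enriched and analysed by diaPASEF. Competition ratio = intensity DMSO / intensity compound (n=4 treated, n=64 DMSO); binding: mean log2 CR ≥ 1 and p ≤ 0.05 plus QC filters. Target is the cysteine site.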

Row | Target | log2 mean competition ratio
1 | TUT4 C64 (UniProt Q5TAX3) | 0.247
2 | UBR4 C2554 (UniProt Q5T4S7) | 0.0458
3 | TTC37 C305 (UniProt Q6PGP7) | -0.214
4 | TRRAP C420 (UniProt Q9Y4A5) | 0.215
5 | TUT7 C775 (UniProt Q5VYS8) | 0.161
6 | TTC31 C197 | 0.152
7 | TUBGCP2 C737 (UniProt Q9BSJ2) | 0.0399
8 | TTC38 C53 (UniProt Q5R3I4) | -0.261
9 | TRMT2A C365 (UniProt Q8IZ69) | 0.018
10 | UBR1 C993 (UniProt Q8IWV7) | -0.363
11 | TRRAP C3758 (UniProt Q9Y4A5) | -0.275
12 | TRRAP C2241 (UniProt Q9Y4A5) | -0.675
13 | UBE3B C75 (UniProt Q7Z3V4) | 0.15
14 | UBE2O C1288 | -0.186
15 | TSFM C71 (UniProt P43897) | -0.0311
16 | UBR4 C3279 (UniProt Q5T4S7) | -0.146
17 | TTF2 C1118 (UniProt Q9UNY4) | 0.181
18 | TSNAX C257 (UniProt Q99598) | 0.0852
19 | TRRAP C1408 (UniProt Q9Y4A5) | -0.158
20 | TUT7 C343 (UniProt Q5VYS8) | 0.347
21 | TROAP C647 (UniProt Q12815) | 0.0331
22 | UBA1 C179 (UniProt P22314) | -0.0935
23 | UBR4 C3414 (UniProt Q5T4S7) | -0.0604
24 | TXNDC11 C815 (UniProt Q6PKC3) | -0.0234
25 | UBN2 C614 (UniProt Q6ZU65) | 0.0356
26 | TTC21B C187 (UniProt Q7Z4L5) | 0.202
27 | UBN1 C548 (UniProt Q9NPG3) | -0.0197

Part of the list above in another layout:

| Row | Target | log2 mean competition ratio |
| --- | --- | --- |
| 18 | TSNAX C257 (UniProt Q99598) | 0.0852 |
| 19 | TRRAP C1408 (UniProt Q9Y4A5) | -0.158 |
